Assay results taken from article doi:10.1101/2020.01.24.918714.
Read-outs that look alike come from different tables or passages of the source. These are yes or no findings as the source states them, for the method shown. Some results given as binding are weak or reduced against the parent protein; the word gives no strength. Tags and fused reporters may be left off the sequences shown.

Key:
Assay in all cases: single-molecule fluorescence motility assay
[1] = target: Cin8-GFP-6His (tetrameric kinesin-5 Cin8 of Saccharomyces cerevisiae) (S. cerevisiae) (UniProt P27895)
[2] = target: Cin8-GFP-6His (tetrameric kinesin-5 Cin8 of Saccharomyces cerevisiae) (S. cerevisiae) (UniProt P27895); remark: listed apart in the source
[3] = target: Cin8-GFP-6His (tetrameric kinesin-5 Cin8 of Saccharomyces cerevisiae) (S. cerevisiae) (UniProt P27895); remark: listed apart in the source

Measured: binding

B1: Cin8-GFP-6His (tetrameric kinesin-5 Cin8 of Saccharomyces cerevisiae) (protein, UniProt P27895 1-1000)
chain: MPAENQNTGQDRSSNSISKNGNSQVGCHTVPNEELNITVAVRCRGRNEREISMKSSVVVNVPDITGSKEISINTTGDTGITAQMNAKRYTVDKVFGPGASQDLIFDEVAGPLFQDFIKGYNCTVLVYGMTSTGKTYTMTGDEKLYNGELSDAAGIIPRVLLKLFDTLELQQNDYVVKCSFIELYNEELKDLLDSNSNGSSNTGFDGQFMKKLRIFDSSTANNTTSNSASSSRSNSRNSSPRSLNDLTPKAALLRKRLRTKSLPNTIKQQYQQQQAVNSRNNSSSNSGSTTNNASSNTNTNNGQRSSMAPNDQTNGIYIQNLQEFHITNAMEGLNLLQKGLKHRQVASTKMNDFSSRSHTIFTITLYKKHQDELFRISKMNLVDLAGSENINRSGALNQRAKEAGSINQSLLTLGRVINALVDKSGHIPFRESKLTRLLQDSLGGNTKTALIATISPAKVTSEETCSTLEYASKAKNIKNKPQLGSFIMKDILVKNITMELAKIKSDLLSTKSKEGIYMSQDHYKNLNSDLESYKNEVQECKREIESLTSKNALLVKDKLKSKETIQSQNCQIESLKTTIDHLRAQLDKQHKTEIEISDFNNKLQKLTEVMQMALHDYKKRELDLNQKFEMHITKEIKKLKSTLFLQLNTMQQESILQETNIQPNLDMIKNEVLTLMRTMQEKAELMYKDCVKKILNESPKFFNVVIEKIDIIRVDFQKFYKNIAENLSDISEENNNMKQYLKNHFFKNNHQELLNRHVDSTYENIEKRTNEFVENFKKVLNDHLDENKKLIMQNLTTATSAVIDQEMDLFEPKRVKWENSFDLINDCDSMNNEFYNSMAATLSQIKSTVDTSSNSMNESISVMKGQVEESENAISLLKNNTKFNDQFEQLINKHNMLKDNIKNSITSTHSHITNVDDIYNTIENIMKNYGNKENATKDEMIENILKEIPNLSKKMPLRLSNINSNSVQSVISPKKHAIEDENKSSENVDNEGSRKMLKIE
binds weakly: all assays above
